According to paper PMC7819943, “Rice protein-binding microarrays: a tool to detect cis-acting elements near promoter regions in rice”:
The list shows a part of the results.

Sequences of proteins named here, by UniProt entry; tags and fusion partners are left off.
UniProt Q0JBA9, entry or part of it: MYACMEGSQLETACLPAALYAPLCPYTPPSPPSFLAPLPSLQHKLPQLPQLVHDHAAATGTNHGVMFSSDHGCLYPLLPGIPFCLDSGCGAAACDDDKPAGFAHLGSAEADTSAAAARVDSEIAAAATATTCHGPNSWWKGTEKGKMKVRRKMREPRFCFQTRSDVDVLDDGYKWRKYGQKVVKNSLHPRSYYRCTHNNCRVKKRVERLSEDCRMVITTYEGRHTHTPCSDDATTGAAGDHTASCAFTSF

What follows are sequences tested against OsWRKY34 (Oryza sativa, UniProt Q0JBA9 1-250) (assay: protein-binding microarray (RPBM); PBS, 2% BSA, 51.3 ng/ul salmon testes DNA, 50 uM zinc acetate, 200 nM TF, 25 C, 1 h; high values mean tight binding). Conditions: protein: recombinant; tags: N-terminal polyhistidine and DsRed monomer fusion (pET32a); label: CyDye5-dUTP incorporated in the synthesized complementary strand; 3' TTTTT single-stranded linker to array surface; dsDNA, one strand shown.
How it was run: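 An Axon 4000B scanner gave the binding signal as per-feature fluorescence intensity in arbitrary units. This followed washing of a custom Agilent array that had been incubated for 1 h at 25 °C with 200 nM protein in PBS, 2% BSA, salmon testes DNA and 50 µM zinc acetate. The proteins were transcription factors fused at the N-terminus to polyhistidine and DsRed, expressed in E. coli BL21-CodonPlus and purified on Ni–NTA.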

Sequence	binding signal
TTTCATACCTCGCTTTATACGACATTTGTGCAAATCATCGCGGAGTCACCTAGTGCAG	8670 fluorescence intensity (a.u.)
CTTATATTTTCATTTAGTGTGTGTTTTTTTTCTATTTTTCCGGAGTCACCTAGTGCAG	11600 fluorescence intensity (a.u.)
CTCAACCTTGCTTCCATTCTTTCCATCCACCCGCCGATCGCGGAGTCACCTAGTGCAG	10200 fluorescence intensity (a.u.)
ATGGTCAAACATGTGAGAAAAAGTCAACGGCGTCATCTATCGGAGTCACCTAGTGCAG	19600 fluorescence intensity (a.u.)
CGTCCACCGCACACCGCCCGAGGGCCCAACACCCGGTCCACGGAGTCACCTAGTGCAG	8870 fluorescence intensity (a.u.)
ACACTGTTCATGCACTTTTTATTTTTTTAGTGGACCAACTCGGAGTCACCTAGTGCAG	8450 fluorescence intensity (a.u.)
CTATACCAGCGCCCCGCGCCTTCAGCTTGTCGTGCTCCTCCGGAGTCACCTAGTGCAG	8560 fluorescence intensity (a.u.)
CTATGATTTTTTTGTTTTCCGTGCTCTAAGTTCATCTTCACGGAGTCACCTAGTGCAG	8330 fluorescence intensity (a.u.)
AAACCATTAAAATTTTCACTTCCAATTTGCTTTCGTCCCGCGGAGTCACCTAGTGCAG	9880 fluorescence intensity (a.u.)
TGCACTTGTAGGATGGGTATTTAATTATGTGTTTTACTTACGGAGTCACCTAGTGCAG	12300 fluorescence intensity (a.u.)
ACTACATTCGCATTGATTCAAGCAGTTGCTTCACTTTCTCCGGAGTCACCTAGTGCAG	8900 fluorescence intensity (a.u.)
TGCACGTATCACGGTGATAGGCCTACGCGCTATGTCTAACCGGAGTCACCTAGTGCAG	8060 fluorescence intensity (a.u.)
AATAGGTGTAGCTTTCGTTTCTGGGCATTCTATTTTTCATCGGAGTCACCTAGTGCAG	15300 fluorescence intensity (a.u.)
TAGGACGGAGGGAGTATGTGTCTGCTGTTTAGTTCCTGTACGGAGTCACCTAGTGCAG	8810 fluorescence intensity (a.u.)
CCCGTGTCTTGTGCTTTTTCCATTCTCGCGAACTTTCCACCGGAGTCACCTAGTGCAG	11000 fluorescence intensity (a.u.)
TTCAAGCCGTCCCCACCGACCGCCTCCACCATGCGGCGCCCGGAGTCACCTAGTGCAG	8170 fluorescence intensity (a.u.)
CGCAAGGGAGAATAGGGGTGTTGAGAGGAGGGGCGACAGGCGGAGTCACCTAGTGCAG	8240 fluorescence intensity (a.u.)
TCAACCACCCCGTGATGCATCTTTTTAGCTACATGGAACCCGGAGTCACCTAGTGCAG	9200 fluorescence intensity (a.u.)
TTATACCTTGTGTTACTTTTATTTATTCCCTTAGTATGTACGGAGTCACCTAGTGCAG	8960 fluorescence intensity (a.u.)
GCCTCTCAATCTGCACGTCCACATCGGTTCTCGGTGCCCGCGGAGTCACCTAGTGCAG	8140 fluorescence intensity (a.u.)
AATTTTCCGTTTCTCCTTTTCTTGCTTTGTTTTTTCCTTGCGGAGTCACCTAGTGCAG	15200 fluorescence intensity (a.u.)

Sequence	binding signal
GCCCACAATTTGGTCCACAAGCTGCATCTATTCCCAAGCCCGGAGTCACCTAGTGCAG	8730 fluorescence intensity (a.u.)
CCTTTCGTTTTATATTATAATTCGTTTTGACTTTTTTCTTCGGAGTCACCTAGTGCAG	10500 fluorescence intensity (a.u.)
TACTGTTGAGAGACCTTGTTTGCACTCGTTTTCGTAAGTTCGGAGTCACCTAGTGCAG	9140 fluorescence intensity (a.u.)
GAGCATTGGGTTGGGCCTTCCTTTCTTGTATTCGGCTTCTCGGAGTCACCTAGTGCAG	16500 fluorescence intensity (a.u.)
CTGCTTGTTTCATCAATTGCCTCGTAAATTCCAGGTTTTACGGAGTCACCTAGTGCAG	8170 fluorescence intensity (a.u.)
CGTTTCTGCGGTTCTGATTTTCTTTATTGCCAACCTCCATCGGAGTCACCTAGTGCAG	8460 fluorescence intensity (a.u.)
GCCACACCGGCCCACACCCTGCGTCCCTACCTCGCACTCGCGGAGTCACCTAGTGCAG	11600 fluorescence intensity (a.u.)
CTGTGTGGTGGTGGTGGAAGTGGAGGAGCAAACCTTGGACCGGAGTCACCTAGTGCAG	8880 fluorescence intensity (a.u.)
CAACTCTCCACCATTTAATTTTTTTTACCTACCTCCACTTCGGAGTCACCTAGTGCAG	8150 fluorescence intensity (a.u.)
CTTTATATCATCGGAAAACGATAGTCCTCTACGTAGTAAACGGAGTCACCTAGTGCAG	8180 fluorescence intensity (a.u.)
GTGGGCGTGGGCCCCGCGTCCTGTGGTGGTGGTGGGTGCTCGGAGTCACCTAGTGCAG	9200 fluorescence intensity (a.u.)
CCTCGTTTTTTTTTTTGGGTTCATCTCGTGTGTTCCGTGACGGAGTCACCTAGTGCAG	18400 fluorescence intensity (a.u.)
GCTTGATTCATTAATTCATATGTGTCGTGTACTACTAATCCGGAGTCACCTAGTGCAG	11200 fluorescence intensity (a.u.)
TCCTTTTATTTACCTTTGTGTGCTTTATACCAGACTAGCTCGGAGTCACCTAGTGCAG	11000 fluorescence intensity (a.u.)
CATTATGTTTTGTTCATCTTTTATTACTAAAGTTTCGGTTCGGAGTCACCTAGTGCAG	9150 fluorescence intensity (a.u.)
TCGCACGCTCACTCGCCTGCTCTGACTACTCGCCTCCTGCCGGAGTCACCTAGTGCAG	8580 fluorescence intensity (a.u.)
GCGCGTTGACGTAACCACCTCGTCCTCATCATCATCCTCTCGGAGTCACCTAGTGCAG	8630 fluorescence intensity (a.u.)
TACTTATATGGGTAGGGAAGAGTATGCAGGTCCAATCTTTCGGAGTCACCTAGTGCAG	8770 fluorescence intensity (a.u.)
CACCGCCCCATCGATCTCCGCCCGGCCGCCACCAATCTCGCGGAGTCACCTAGTGCAG	10200 fluorescence intensity (a.u.)
GGTGGGAGCACGATGCGGGACGTGGGGTGGGATCGGAAGCCGGAGTCACCTAGTGCAG	8590 fluorescence intensity (a.u.)
ATGGCCACCCACAAGCTCGACAGCGCTGAATTCATTATTTCGGAGTCACCTAGTGCAG	8400 fluorescence intensity (a.u.)

Part of the list above, in markdown.

| Sequence | binding signal |
| --- | --- |
| CTGCTTGTTTCATCAATTGCCTCGTAAATTCCAGGTTTTACGGAGTCACCTAGTGCAG | 8170 fluorescence intensity (a.u.) |
| CGTTTCTGCGGTTCTGATTTTCTTTATTGCCAACCTCCATCGGAGTCACCTAGTGCAG | 8460 fluorescence intensity (a.u.) |
| GCCACACCGGCCCACACCCTGCGTCCCTACCTCGCACTCGCGGAGTCACCTAGTGCAG | 11600 fluorescence intensity (a.u.) |
| CTGTGTGGTGGTGGTGGAAGTGGAGGAGCAAACCTTGGACCGGAGTCACCTAGTGCAG | 8880 fluorescence intensity (a.u.) |
| CAACTCTCCACCATTTAATTTTTTTTACCTACCTCCACTTCGGAGTCACCTAGTGCAG | 8150 fluorescence intensity (a.u.) |
| CTTTATATCATCGGAAAACGATAGTCCTCTACGTAGTAAACGGAGTCACCTAGTGCAG | 8180 fluorescence intensity (a.u.) |
| GTGGGCGTGGGCCCCGCGTCCTGTGGTGGTGGTGGGTGCTCGGAGTCACCTAGTGCAG | 9200 fluorescence intensity (a.u.) |
| CCTCGTTTTTTTTTTTGGGTTCATCTCGTGTGTTCCGTGACGGAGTCACCTAGTGCAG | 18400 fluorescence intensity (a.u.) |
| GCTTGATTCATTAATTCATATGTGTCGTGTACTACTAATCCGGAGTCACCTAGTGCAG | 11200 fluorescence intensity (a.u.) |
